Measurements from publication PMC7819943, “Rice protein-binding microarrays: a tool to detect cis-acting elements near promoter regions in rice”.
The list shows a part of the results.

Target: T1, OsSMF1 (Oryza sativa, UniProt Q6ZLB0 1-436)
T1 sequence: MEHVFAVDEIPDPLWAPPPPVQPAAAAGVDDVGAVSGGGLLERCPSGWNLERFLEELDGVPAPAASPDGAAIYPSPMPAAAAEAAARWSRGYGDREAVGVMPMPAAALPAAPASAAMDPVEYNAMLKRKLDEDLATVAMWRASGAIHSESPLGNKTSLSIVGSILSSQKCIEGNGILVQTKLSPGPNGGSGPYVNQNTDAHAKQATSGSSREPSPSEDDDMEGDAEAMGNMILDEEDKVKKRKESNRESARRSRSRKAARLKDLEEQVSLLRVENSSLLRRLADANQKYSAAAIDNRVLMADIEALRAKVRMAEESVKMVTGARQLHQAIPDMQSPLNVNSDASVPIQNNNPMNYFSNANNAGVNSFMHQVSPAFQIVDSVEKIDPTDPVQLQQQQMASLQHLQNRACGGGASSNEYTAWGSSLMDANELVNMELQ
Assay: protein-binding microarray (RPBM); PBS, 2% BSA, 51.3 ng/ul salmon testes DNA, 50 uM zinc acetate, 200 nM TF, 25 C, 1 h; high values mean tight binding
Settings: protein: recombinant; tags: N-terminal polyhistidine and DsRed monomer fusion (pET32a); chain copies: 2; label: CyDye5-dUTP incorporated in the synthesized complementary strand; 3' TTTTT single-stranded linker to array surface; dsDNA, one strand shown
In short: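 For the binding signal, per-feature fluorescence intensity was read in arbitrary units on an Axon 4000B scanner. Before scanning, a 2% BSA-blocked custom Agilent array made double-stranded with Cy5-dUTP was washed after 1 h at 25 °C with 200 nM protein and 50 µM zinc acetate. The proteins were Ni–NTA-purified transcription factors with N-terminal polyhistidine and DsRed fusions, expressed in E. coli BL21-CodonPlus.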

Row | Sequence | binding signal
1 | ATAGAAAGATGTGTTTTGTAGGAAGACGAAGCAAGACTTTCGGAGTCACCTAGTGCAG | 34400 fluorescence intensity (a.u.)
2 | TACGCCAGAATCCTACATCTGTGACGGCACACCAGTGACGCGGAGTCACCTAGTGCAG | 3950 fluorescence intensity (a.u.)
3 | CATACCCAGAGATCAAATTAAGCCGACGGATCAGCGGAGCCGGAGTCACCTAGTGCAG | 28200 fluorescence intensity (a.u.)
4 | GTAGGTGTCATATGTCAGTTCCAGTCATATTGACAGTTGGCGGAGTCACCTAGTGCAG | 6590 fluorescence intensity (a.u.)
5 | AGGACGGCAGTGCTGCTCCATCAACAACGTGGCTAAGTAACGGAGTCACCTAGTGCAG | 3140 fluorescence intensity (a.u.)
6 | GCACGCCGCGGTCGCGGCTGCCGCCGTGGACGCGGCACAACGGAGTCACCTAGTGCAG | 3980 fluorescence intensity (a.u.)
7 | AAGCTTTGGGTTGCTGCTGCGTCACCCCTCTCGGGCCACACGGAGTCACCTAGTGCAG | 7290 fluorescence intensity (a.u.)
8 | TACATTCATCTGACAATGACATATGGACCCCACAGTTCTGCGGAGTCACCTAGTGCAG | 3290 fluorescence intensity (a.u.)
9 | GAAATCTAATTTTATCCACGAGACTATAGTGAGCCTACTCCGGAGTCACCTAGTGCAG | 39700 fluorescence intensity (a.u.)
10 | TCGTACCCGTCCTACGTGTCCGCACAGTAGCTCAACCCACCGGAGTCACCTAGTGCAG | 8630 fluorescence intensity (a.u.)
11 | CACCTCGCGCCGCGCCCCATCCTTATCGTCATGACACGCCCGGAGTCACCTAGTGCAG | 3700 fluorescence intensity (a.u.)
12 | CGCCAGTTGCTAGCCACGTCGCCTCCGTCCTTGCTACTGCCGGAGTCACCTAGTGCAG | 3920 fluorescence intensity (a.u.)
13 | TCCCACAGGTGGCGCCGGCGGGTGATCTAGCTACGGACATCGGAGTCACCTAGTGCAG | 3390 fluorescence intensity (a.u.)
14 | TACGGAAACTATCCGTATACGCACGGGTATATCGTATCAGCGGAGTCACCTAGTGCAG | 3250 fluorescence intensity (a.u.)
15 | AGAAGGAAAGAGTTTCATCCTGGTGAAACTCGTCAGCGTCCGGAGTCACCTAGTGCAG | 3510 fluorescence intensity (a.u.)
16 | TTCTCCTGCTCCCGCCGCATCATCGCTCACCGGTGAGCATCGGAGTCACCTAGTGCAG | 3870 fluorescence intensity (a.u.)
17 | GACCAAACCTCCAATTAACAAGGTAGTTTAACACACATCACGGAGTCACCTAGTGCAG | 16100 fluorescence intensity (a.u.)
18 | TCCAAGCAATGACACTGATCGATCTTCCTGTTCACATATGCGGAGTCACCTAGTGCAG | 4190 fluorescence intensity (a.u.)
19 | TGGTGATAATGTCATTCTGTTATTACAGAGGTCAACGTGTCGGAGTCACCTAGTGCAG | 3320 fluorescence intensity (a.u.)
20 | ACACCACCCGCCACGCACGTTAACCACGCCGACACGTGGGCGGAGTCACCTAGTGCAG | 13000 fluorescence intensity (a.u.)
21 | TCGATTCGAATCGATCCAGATCGATATATACGTAAGCAACCGGAGTCACCTAGTGCAG | 3780 fluorescence intensity (a.u.)
22 | AACATACTAATTGCATTTTATTAGACGCAGTATTGAGTTCCGGAGTCACCTAGTGCAG | 24800 fluorescence intensity (a.u.)
23 | GTTCGATATTGGGAAGTTGTTAATGTGAACTGTTCTTCAGCGGAGTCACCTAGTGCAG | 3300 fluorescence intensity (a.u.)
24 | ACGGCTAGGATAAGCTCCAGTTAAGACGATCCGACGCGGGCGGAGTCACCTAGTGCAG | 19800 fluorescence intensity (a.u.)
25 | CGTTGTCGCAGTTCTTTATTGACAAGACCTCGAGGGACCTCGGAGTCACCTAGTGCAG | 22500 fluorescence intensity (a.u.)
26 | CATGAATTACTGGCATCTTGTAACGGATCCCCTCGTCAAACGGAGTCACCTAGTGCAG | 3570 fluorescence intensity (a.u.)
27 | TTTTCTTGTTTCGCATGCGCTGAGTATATCCCTCCAATTGCGGAGTCACCTAGTGCAG | 3250 fluorescence intensity (a.u.)

Row | Sequence | binding signal
28 | ACTACAAATAGATCGAACAGAAACAGAGCATCACGACGACCGGAGTCACCTAGTGCAG | 40300 fluorescence intensity (a.u.)
29 | TCCCATGCCACCAATATTGGCCCACTGTCACCTCCTAACCCGGAGTCACCTAGTGCAG | 3160 fluorescence intensity (a.u.)
30 | AATATGACTCAGTAGCACGAATGACTCCGTGGCCCAATGGCGGAGTCACCTAGTGCAG | 5230 fluorescence intensity (a.u.)
31 | CCGCCGGAACCAGCCTGGCGGCGGTGACGGCGCCACCACGCGGAGTCACCTAGTGCAG | 3200 fluorescence intensity (a.u.)
32 | AAAAGTGACATCAGTACCATAACCTACGAAATTGACAGTTCGGAGTCACCTAGTGCAG | 3300 fluorescence intensity (a.u.)
33 | TTGTTGTCCCGTGTCTCCGCCGTCGCGTCACCGCCCAGCACGGAGTCACCTAGTGCAG | 8140 fluorescence intensity (a.u.)
34 | GGAAACAGCATCGAACGTCACACGTTCGTCCACGTTATCGCGGAGTCACCTAGTGCAG | 4760 fluorescence intensity (a.u.)
35 | GGTGTGGCGTGAGCGTGACACGGTGTCAACTGTCAAGTGTCGGAGTCACCTAGTGCAG | 3400 fluorescence intensity (a.u.)
36 | ACCATGGATGGATTCCCTCTCCTACCACCACACGTACACCCGGAGTCACCTAGTGCAG | 4090 fluorescence intensity (a.u.)
37 | TGAGAGGCTGGGCCCACGCGACATCGACGAAGCGGGCCCACGGAGTCACCTAGTGCAG | 16400 fluorescence intensity (a.u.)
38 | CAAATTTAAAATCCGTACTGACTCATCTACTCCCCTTATGCGGAGTCACCTAGTGCAG | 26100 fluorescence intensity (a.u.)
39 | CGTTGAGGATGATGTTGGTGACGGGGTCGGCGAGGCCAAACGGAGTCACCTAGTGCAG | 3750 fluorescence intensity (a.u.)
40 | TGACCATTCTAAAACGATCATACACGTGTGAAACATTTATCGGAGTCACCTAGTGCAG | 8620 fluorescence intensity (a.u.)
41 | ACTTGTTTCTCCTCCACGTCGGTCGAGTCCGAGTCCACCGCGGAGTCACCTAGTGCAG | 6280 fluorescence intensity (a.u.)
42 | CAAATCCCCAGCCTCCCTCTATAGCTTTGCTATGCTGACTCGGAGTCACCTAGTGCAG | 6660 fluorescence intensity (a.u.)
43 | ACGCGGCACGCGCGCAGTGTCAGAGTCACAGGCCAGTCACCGGAGTCACCTAGTGCAG | 4820 fluorescence intensity (a.u.)
44 | GGAGTTGTTGCGTGACTTGCGTCCTGCTGCTGCATCGTTCCGGAGTCACCTAGTGCAG | 7330 fluorescence intensity (a.u.)
45 | TATTCCTTTAGGCTATAAACACATCAGCATGATAAAGAGACGGAGTCACCTAGTGCAG | 4180 fluorescence intensity (a.u.)
46 | CTCTTCCTCCTCCGCTCCGCTCCACCTCGGTTGACCACCACGGAGTCACCTAGTGCAG | 3170 fluorescence intensity (a.u.)
47 | TTCAGATTTCTGATGTGTGAACTGTGATCCCTGCTTGCTTCGGAGTCACCTAGTGCAG | 3380 fluorescence intensity (a.u.)
48 | CGGTGCTCTTCTCGCTGCCGGTGGCGTACCCGGTCGCCAACGGAGTCACCTAGTGCAG | 3780 fluorescence intensity (a.u.)
49 | TATATTGGGGACGGAGTTAGTACGTGTACGTATAATCTACCGGAGTCACCTAGTGCAG | 5680 fluorescence intensity (a.u.)
50 | CGGTAGGGCCCACATGTCTGTCGGGGTGGGCGGTGGTGGTCGGAGTCACCTAGTGCAG | 5220 fluorescence intensity (a.u.)
51 | CCCTCCTCCCTCTCCCTCAGCCATCCTCCTCCTCCGCCGCCGGAGTCACCTAGTGCAG | 5200 fluorescence intensity (a.u.)
52 | AATGTGACCACGTCATCCCCTTCTTTCCCTTTCCCCTCTTCGGAGTCACCTAGTGCAG | 33300 fluorescence intensity (a.u.)
53 | TGTTCATCCAAGGAGATTATCAGGTTGTTTGTATATATAACGGAGTCACCTAGTGCAG | 26400 fluorescence intensity (a.u.)
54 | CCCTGCCACACCCTCGGTCCCACGTGTCAGTGTGTTGCACCGGAGTCACCTAGTGCAG | 15200 fluorescence intensity (a.u.)

Some of the entries above, set out differently.
Row	Sequence	binding signal
40	TGACCATTCTAAAACGATCATACACGTGTGAAACATTTATCGGAGTCACCTAGTGCAG	8620 fluorescence intensity (a.u.)
44	GGAGTTGTTGCGTGACTTGCGTCCTGCTGCTGCATCGTTCCGGAGTCACCTAGTGCAG	7330 fluorescence intensity (a.u.)
